Laboratory results: article PMC10148886
These are yes or no findings as the source states them, for the method shown. For part of these data: Binding seen in cells or lysates may run through a third protein. Some results given as binding are weak or reduced against the parent protein; the word gives no strength. For part of these data: Tags and fused reporters may be left off the sequences shown.

Protein sequences, listed by entry. Tags and fused reporters are not part of them.
UniProt Q9ULZ3: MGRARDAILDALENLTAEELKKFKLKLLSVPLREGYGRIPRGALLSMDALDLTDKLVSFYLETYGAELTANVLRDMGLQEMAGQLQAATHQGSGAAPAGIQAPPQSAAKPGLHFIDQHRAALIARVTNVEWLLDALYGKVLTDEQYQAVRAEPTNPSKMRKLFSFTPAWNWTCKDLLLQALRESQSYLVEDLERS

Key:
[1] = target: FLAG-tagged caspase-1^CARD (released from MBP by TEV protease) (UniProt P29466); test: 100 K MWCO filtration with western blot; ASC specks from 2.5 μM MBP-fused full-length ASC treated with 5 μM rB7 or rOff for 1 h (or no ASC specks), then 1 h with 10 μM MBP-fused FLAG-tagged caspase-1^CARD and TEV protease; retained material blotted; both purified
[2] = target: recombinant full-length ASC (ASC specks from TEV-cleaved MBP-fused ASC) (UniProt Q9ULZ3); test: as above
[3] = target: recombinant full-length ASC (ASC specks from TEV-cleaved MBP-fused ASC) (UniProt Q9ULZ3); test: sucrose-gradient ultracentrifugation; recombinant ASC specks treated with 5 μM rB7 or rOff for 30 min, then 15 μM MBP-fused caspase-1^CARD-SUMO-FLAG and TEV protease for 1 h; 5-45% sucrose, fourteen fractions, western blot; both purified
[4] = target: endogenous ASC (extracellular ASC specks in cell-free supernatants of stimulated THP-1 cells) (human (endogenous in THP-1)) (UniProt Q9ULZ3); test: pull-down; the same experiment as a13, for the two endogenous proteins of the supernatant found together on GST-fused rB7
[5] = target: endogenous ASC (extracellular ASC specks in cell-free supernatants of stimulated THP-1 cells) (human (endogenous in THP-1)) (UniProt Q9ULZ3); test: sucrose-gradient ultracentrifugation; cell-free supernatants of LPS/nigericin-stimulated THP-1 cells with 5 μM rB7 or rOff for 1 h; 5-45% sucrose, 167,000×g, 10 min, fourteen fractions, western blot of caspase-1 and ASC
[6] = target: T1, caspase-1^CARD-SUMO labelled with DyLight 550 or DyLight 650 (released from MBP by TEV protease), P29466; test: FRET or BRET; MBP-fused caspase-1^CARD-SUMO labelled with DyLight 550 and with DyLight 650 mixed, TEV protease added in the presence of recombinant ASC specks treated with rB7 or rOff; FRET efficiency after 45 min normalised by the initial value; excitation 522 nm, emission 578 and 678 nm; both purified; conditions: remark: other sources report otherwise
T1 chain: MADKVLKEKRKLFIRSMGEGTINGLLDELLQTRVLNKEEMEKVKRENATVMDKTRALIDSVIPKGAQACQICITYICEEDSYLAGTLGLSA

“FLAG-tagged caspase-1^CARD (released from MBP by TEV protease) (from UniProt P29466 1-91) (domain or fragment)” was tested, and the binding [1] was “binds weakly” and the binding [2] was “binds”.

In the case of “caspase-1^CARD-SUMO-FLAG (released from MBP by TEV protease) (from UniProt P29466 1-91) (domain or fragment)”, the binding [3] is reported as “binds”.

For “endogenous caspase-1 species (premature caspase-1 and processed species including p20) in cell-free supernatants of stimulated THP-1 cells (from UniProt P29466 1-404) (enzyme)”, the binding [4] was “binds” and the binding [5] was “binds”.

B1: caspase-1^CARD-SUMO labelled with DyLight 550 or DyLight 650 (released from MBP by TEV protease), P29466 1-91 (domain or fragment)
chain: MADKVLKEKRKLFIRSMGEGTINGLLDELLQTRVLNKEEMEKVKRENATVMDKTRALIDSVIPKGAQACQICITYICEEDSYLAGTLGLSA
modifications: here or on the partner: DyLight 550 or DyLight 650 maleimide on free cysteine residues; DyLight 550 or DyLight 650 maleimide on free cysteine residues
With B1 the binding [6] was “binds”.
